# These are yes or no findings as the source states them, for the method shown.
# Experiments:
# [1] = target: thioredoxin T (TrxT) from D. melanogaster, full length (D. melanogaster) (UniProt Q8IFW4); test: NMR 15N relaxation (T1, T2, correlation time); 15N-labelled protein in solution, 600 MHz, 298 K; correlation time from T1 and T2 compared with the molecular weight; both purified
# [2] = target: Deadhead (Dhd) from D. melanogaster (D. melanogaster) (UniProt P47938); test: as above
binding [1],binding [2],Binder
no binding,–,"thioredoxin T (TrxT) from D. melanogaster, full length (protein, UniProt Q8IFW4 1-157) MVYPVRNKDDLDQQLILAEDKLVVIDFYADWCGPCKIIAPKLDELAQQYSDRVVVLKVNVDENEDITVEYNVNSMPTFVFIKGGNVLELFVGCNSDKLAKLMEKHAGVYTDEAADVKAVHIDGECIVDLTAESSESDNDNNNVNEVSAHDENAVLEH"
–,no binding,"Deadhead (Dhd) from D. melanogaster (protein, UniProt P47938 1-107) MASVRTMNDYHKRIEAADDKLIVLDFYATWCGPCKEMESTVKSLARKYSSKAVVLKIDVDKFEELTERYKVRSMPTFVFLRQNRRLASFAGADEHKLTNMMAKLVKA"
